Assay results taken from paper doi:10.1101/2021.01.20.427402.

Chains of the proteins cited; added tags and fusions are not shown.
UniProt P35611: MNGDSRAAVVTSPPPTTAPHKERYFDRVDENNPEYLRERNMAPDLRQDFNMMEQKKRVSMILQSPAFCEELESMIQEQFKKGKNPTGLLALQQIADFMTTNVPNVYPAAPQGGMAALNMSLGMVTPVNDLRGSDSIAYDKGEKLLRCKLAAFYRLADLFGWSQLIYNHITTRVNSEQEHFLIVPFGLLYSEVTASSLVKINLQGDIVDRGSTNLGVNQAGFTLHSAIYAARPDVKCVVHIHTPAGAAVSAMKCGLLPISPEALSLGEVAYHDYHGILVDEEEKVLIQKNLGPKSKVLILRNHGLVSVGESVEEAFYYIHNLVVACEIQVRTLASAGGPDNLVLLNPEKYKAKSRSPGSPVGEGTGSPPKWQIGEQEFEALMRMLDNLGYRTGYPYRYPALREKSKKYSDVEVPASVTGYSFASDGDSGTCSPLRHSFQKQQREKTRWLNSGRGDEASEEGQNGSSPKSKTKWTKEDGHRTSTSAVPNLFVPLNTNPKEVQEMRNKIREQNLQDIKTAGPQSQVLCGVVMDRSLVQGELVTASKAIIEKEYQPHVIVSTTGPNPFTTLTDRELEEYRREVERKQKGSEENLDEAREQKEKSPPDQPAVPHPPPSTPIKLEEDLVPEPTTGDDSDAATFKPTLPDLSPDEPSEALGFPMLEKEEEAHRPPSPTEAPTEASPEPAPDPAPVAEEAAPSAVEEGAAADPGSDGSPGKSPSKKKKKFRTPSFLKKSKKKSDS
UniProt Q92841: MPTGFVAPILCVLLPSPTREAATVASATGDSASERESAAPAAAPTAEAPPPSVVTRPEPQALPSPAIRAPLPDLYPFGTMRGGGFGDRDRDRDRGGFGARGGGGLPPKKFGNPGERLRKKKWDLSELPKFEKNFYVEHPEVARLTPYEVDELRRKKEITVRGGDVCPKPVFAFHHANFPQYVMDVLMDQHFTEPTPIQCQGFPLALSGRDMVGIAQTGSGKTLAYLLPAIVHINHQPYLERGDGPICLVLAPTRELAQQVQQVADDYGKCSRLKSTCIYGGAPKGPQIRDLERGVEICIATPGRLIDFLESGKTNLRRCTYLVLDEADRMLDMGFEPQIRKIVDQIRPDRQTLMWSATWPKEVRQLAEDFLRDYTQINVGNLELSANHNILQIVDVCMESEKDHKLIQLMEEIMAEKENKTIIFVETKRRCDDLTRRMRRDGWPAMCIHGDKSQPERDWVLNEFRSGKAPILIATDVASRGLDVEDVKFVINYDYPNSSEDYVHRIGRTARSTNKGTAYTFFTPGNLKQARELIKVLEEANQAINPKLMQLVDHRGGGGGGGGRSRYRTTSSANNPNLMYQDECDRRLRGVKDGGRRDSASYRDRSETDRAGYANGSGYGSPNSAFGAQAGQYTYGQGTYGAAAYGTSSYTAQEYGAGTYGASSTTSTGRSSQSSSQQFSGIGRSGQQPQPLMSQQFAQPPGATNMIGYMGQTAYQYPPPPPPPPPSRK
UniProt P17844: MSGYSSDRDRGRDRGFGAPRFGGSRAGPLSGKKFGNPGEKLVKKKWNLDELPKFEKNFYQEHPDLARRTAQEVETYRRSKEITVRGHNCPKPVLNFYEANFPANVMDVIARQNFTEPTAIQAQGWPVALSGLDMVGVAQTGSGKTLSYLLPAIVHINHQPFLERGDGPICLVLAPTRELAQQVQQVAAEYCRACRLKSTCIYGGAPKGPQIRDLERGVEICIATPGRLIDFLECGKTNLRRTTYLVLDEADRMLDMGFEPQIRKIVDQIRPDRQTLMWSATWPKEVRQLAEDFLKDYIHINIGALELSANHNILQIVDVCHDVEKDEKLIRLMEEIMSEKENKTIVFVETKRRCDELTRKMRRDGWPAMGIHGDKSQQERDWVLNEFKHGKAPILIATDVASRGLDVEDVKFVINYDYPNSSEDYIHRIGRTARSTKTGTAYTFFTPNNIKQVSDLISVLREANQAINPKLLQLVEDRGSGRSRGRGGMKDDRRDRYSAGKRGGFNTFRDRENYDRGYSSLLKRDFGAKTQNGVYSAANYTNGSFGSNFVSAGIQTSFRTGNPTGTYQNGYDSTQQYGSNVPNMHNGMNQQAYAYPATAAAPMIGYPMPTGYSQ
UniProt P41091: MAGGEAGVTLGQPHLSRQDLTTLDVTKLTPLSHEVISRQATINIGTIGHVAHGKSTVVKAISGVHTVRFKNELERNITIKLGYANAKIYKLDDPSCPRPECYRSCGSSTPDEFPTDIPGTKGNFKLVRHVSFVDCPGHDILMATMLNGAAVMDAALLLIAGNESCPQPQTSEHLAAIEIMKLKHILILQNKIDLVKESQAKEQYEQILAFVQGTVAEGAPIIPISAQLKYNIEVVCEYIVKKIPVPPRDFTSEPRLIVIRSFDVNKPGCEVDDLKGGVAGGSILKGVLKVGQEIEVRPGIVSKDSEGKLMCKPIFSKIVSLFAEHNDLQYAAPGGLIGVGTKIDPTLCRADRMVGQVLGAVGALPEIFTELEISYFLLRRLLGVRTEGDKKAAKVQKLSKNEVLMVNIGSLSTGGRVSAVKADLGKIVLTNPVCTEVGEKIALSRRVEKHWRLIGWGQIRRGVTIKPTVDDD
UniProt P35637: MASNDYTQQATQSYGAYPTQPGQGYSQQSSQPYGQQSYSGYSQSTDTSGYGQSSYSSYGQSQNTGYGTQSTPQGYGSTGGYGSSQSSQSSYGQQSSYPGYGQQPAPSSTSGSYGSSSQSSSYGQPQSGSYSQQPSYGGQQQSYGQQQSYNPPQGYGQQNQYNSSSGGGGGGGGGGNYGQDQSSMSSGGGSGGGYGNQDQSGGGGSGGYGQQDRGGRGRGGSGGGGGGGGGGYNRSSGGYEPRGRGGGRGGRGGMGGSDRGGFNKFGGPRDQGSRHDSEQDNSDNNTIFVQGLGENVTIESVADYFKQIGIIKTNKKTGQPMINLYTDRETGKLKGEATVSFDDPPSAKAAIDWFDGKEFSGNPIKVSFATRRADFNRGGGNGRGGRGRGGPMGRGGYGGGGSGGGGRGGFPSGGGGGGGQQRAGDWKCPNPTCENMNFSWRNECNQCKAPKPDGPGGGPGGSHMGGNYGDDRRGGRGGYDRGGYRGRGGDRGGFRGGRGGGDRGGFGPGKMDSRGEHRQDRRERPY
UniProt Q27J81: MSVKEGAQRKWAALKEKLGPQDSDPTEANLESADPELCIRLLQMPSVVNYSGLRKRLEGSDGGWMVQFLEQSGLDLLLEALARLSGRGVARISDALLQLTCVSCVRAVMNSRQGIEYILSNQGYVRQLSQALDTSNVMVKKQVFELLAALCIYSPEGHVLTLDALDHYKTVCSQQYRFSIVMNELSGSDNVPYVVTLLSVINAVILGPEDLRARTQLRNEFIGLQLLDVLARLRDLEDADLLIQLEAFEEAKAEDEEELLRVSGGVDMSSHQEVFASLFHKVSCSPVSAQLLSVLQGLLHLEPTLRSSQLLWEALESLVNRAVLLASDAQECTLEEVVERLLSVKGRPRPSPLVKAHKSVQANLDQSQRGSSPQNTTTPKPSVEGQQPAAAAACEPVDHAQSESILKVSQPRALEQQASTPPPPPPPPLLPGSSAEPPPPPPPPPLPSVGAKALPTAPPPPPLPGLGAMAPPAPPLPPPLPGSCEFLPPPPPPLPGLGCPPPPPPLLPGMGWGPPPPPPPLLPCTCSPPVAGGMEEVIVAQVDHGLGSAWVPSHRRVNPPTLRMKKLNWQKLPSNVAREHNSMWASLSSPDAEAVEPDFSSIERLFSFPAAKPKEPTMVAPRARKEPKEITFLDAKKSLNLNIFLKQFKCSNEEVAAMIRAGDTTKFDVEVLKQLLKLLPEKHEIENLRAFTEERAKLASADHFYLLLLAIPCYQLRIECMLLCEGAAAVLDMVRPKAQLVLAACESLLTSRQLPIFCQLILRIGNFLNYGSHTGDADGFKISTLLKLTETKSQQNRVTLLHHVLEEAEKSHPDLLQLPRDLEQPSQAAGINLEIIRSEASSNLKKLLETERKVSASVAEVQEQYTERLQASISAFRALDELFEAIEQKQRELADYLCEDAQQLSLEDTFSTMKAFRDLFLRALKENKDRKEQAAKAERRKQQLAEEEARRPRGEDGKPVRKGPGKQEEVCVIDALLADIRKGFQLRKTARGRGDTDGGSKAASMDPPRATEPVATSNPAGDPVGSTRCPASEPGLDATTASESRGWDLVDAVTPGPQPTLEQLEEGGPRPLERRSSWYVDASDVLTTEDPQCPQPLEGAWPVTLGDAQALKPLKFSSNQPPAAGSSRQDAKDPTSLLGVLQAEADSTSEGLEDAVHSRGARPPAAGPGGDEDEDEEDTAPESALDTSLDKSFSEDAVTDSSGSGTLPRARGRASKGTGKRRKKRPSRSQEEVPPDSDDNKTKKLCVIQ
UniProt O94992: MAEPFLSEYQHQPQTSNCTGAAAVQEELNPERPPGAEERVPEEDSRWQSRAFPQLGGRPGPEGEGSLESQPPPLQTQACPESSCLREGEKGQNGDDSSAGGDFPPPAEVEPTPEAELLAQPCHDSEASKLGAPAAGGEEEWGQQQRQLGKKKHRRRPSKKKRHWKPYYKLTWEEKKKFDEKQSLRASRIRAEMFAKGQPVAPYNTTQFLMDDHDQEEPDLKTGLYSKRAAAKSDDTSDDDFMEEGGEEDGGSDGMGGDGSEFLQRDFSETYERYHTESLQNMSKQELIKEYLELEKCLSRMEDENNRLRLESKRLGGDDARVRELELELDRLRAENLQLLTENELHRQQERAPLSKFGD

Legend:
[1] = target: T1, GFP-Zαβ^DAI quadruple mutant (N46A/Y50A/N141A/Y145A) (human) (UniProt Q9H171); assay: affinity purification with mass spectrometry
T1 sequence: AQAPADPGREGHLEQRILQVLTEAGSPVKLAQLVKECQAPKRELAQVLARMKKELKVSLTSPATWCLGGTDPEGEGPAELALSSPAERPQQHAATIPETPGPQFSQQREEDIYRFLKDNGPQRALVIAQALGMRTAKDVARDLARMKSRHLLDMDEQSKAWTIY

[2] = target: T2, GFP-Zαβ^DAI fusion (amino-terminal region of human DAI, residues Ala2-Tyr165, with N-terminal LAP-tag) (human) (UniProt Q9H171); assay: affinity purification with mass spectrometry
T2 sequence: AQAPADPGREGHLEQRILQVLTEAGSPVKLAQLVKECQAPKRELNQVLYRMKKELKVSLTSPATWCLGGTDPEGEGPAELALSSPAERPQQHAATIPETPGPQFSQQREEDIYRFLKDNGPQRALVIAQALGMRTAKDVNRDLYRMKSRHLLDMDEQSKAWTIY

60S acidic ribosomal protein P1 (from UniProt P05386 1-114)
binding [1]: binds

Alpha-adducin (from UniProt P35611 1-737)
binding [2]: binds | binding [1]: binds

DDX17 (from UniProt Q92841 1-729)
binding [2]: binds | binding [1]: binds

DEAD-Box Helicase 5 (from UniProt P17844 1-614)
binding [2]: binds | binding [1]: binds

Eukaryotic translation initiation factor 2 subunit 3 (from UniProt P41091 1-472)
binding [1]: binds

FAM98A protein (from UniProt Q8NCA5 1-518)
binding [2]: binds

FUS (from UniProt P35637 1-526)
binding [2]: binds

Inverted formin-2 (from UniProt Q27J81 1-1249)
binding [1]: binds

Protein HEXIM1 (from UniProt O94992 1-359)
binding [2]: binds | binding [1]: binds

Ras GTPase-activating protein binding protein 1 (from UniProt Q13283 1-466)
binding [2]: binds

B1: tRNA-splicing ligase RtcB homolog (protein, UniProt Q9Y3I0 1-505)
chain: MSRSYNDELQFLEKINKNCWRIKKGFVPNMQVEGVFYVNDALEKLMFEELRNACRGGGVGGFLPAMKQIGNVAALPGIVHRSIGLPDVHSGYGFAIGNMAAFDMNDPEAVVSPGGVGFDINCGVRLLRTNLDESDVQPVKEQLAQAMFDHIPVGVGSKGVIPMNAKDLEEALEMGVDWSLREGYAWAEDKEHCEEYGRMLQADPNKVSARAKKRGLPQLGTLGAGNHYAEIQVVDEIFNEYAAKKMGIDHKGQVCVMIHSGSRGLGHQVATDALVAMEKAMKRDKIIVNDRQLACARIASPEGQDYLKGMAAAGNYAWVNRSSMTFLTRQAFAKVFNTTPDDLDLHVIYDVSHNIAKVEQHVVDGKERTLLVHRKGSTRAFPPHHPLIAVDYQLTGQPVLIGGTMGTCSYVLTGTEQGMTETFGTTCHGAGRALSRAKSRRNLDFQDVLDKLADMGIAIRVASPKLVMEEAPESYKNVTDVVNTCHDAGISKKAIKLRPIAVIKG
binding [2]: binds | binding [1]: binds

B2: DEAD-Box Helicase 1 (protein, UniProt Q92499 1-740)
chain: MAAFSEMGVMPEIAQAVEEMDWLLPTDIQAESIPLILGGGDVLMAAETGSGKTGAFSIPVIQIVYETLKDQQEGKKGKTTIKTGASVLNKWQMNPYDRGSAFAIGSDGLCCQSREVKEWHGCRATKGLMKGKHYYEVSCHDQGLCRVGWSTMQASLDLGTDKFGFGFGGTGKKSHNKQFDNYGEEFTMHDTIGCYLDIDKGHVKFSKNGKDLGLAFEIPPHMKNQALFPACVLKNAELKFNFGEEEFKFPPKDGFVALSKAPDGYIVKSQHSGNAQVTQTKFLPNAPKALIVEPSRELAEQTLNNIKQFKKYIDNPKLRELLIIGGVAARDQLSVLENGVDIVVGTPGRLDDLVSTGKLNLSQVRFLVLDEADGLLSQGYSDFINRMHNQIPQVTSDGKRLQVIVCSATLHSFDVKKLSEKIMHFPTWVDLKGEDSVPDTVHHVVVPVNPKTDRLWERLGKSHIRTDDVHAKDNTRPGANSPEMWSEAIKILKGEYAVRAIKEHKMDQAIIFCRTKIDCDNLEQYFIQQGGGPDKKGHQFSCVCLHGDRKPHERKQNLERFKKGDVRFLICTDVAARGIDIHGVPYVINVTLPDEKQNYVHRIGRVGRAERMGLAISLVATEKEKVWYHVCSSRGKGCYNTRLKEDGGCTIWYNEMQLLSEIEEHLNCTISQVEPDIKVPVDEFDGKVTYGQKRAAGGGSYKGHVDILAPTVQELAALEKEAQTSFLHLGYLPNQLFRTF
binding [2]: binds | binding [1]: binds

B3: Ras GTPase-activating protein-binding protein 2 (protein, UniProt Q9UN86 1-482)
chain: MVMEKPSPLLVGREFVRQYYTLLNKAPEYLHRFYGRNSSYVHGGVDASGKPQEAVYGQNDIHHKVLSLNFSECHTKIRHVDAHATLSDGVVVQVMGLLSNSGQPERKFMQTFVLAPEGSVPNKFYVHNDMFRYEDEVFGDSEPELDEESEDEVEEEQEERQPSPEPVQENANSGYYEAHPVTNGIEEPLEESSHEPEPEPESETKTEELKPQVEEKNLEELEEKSTTPPPAEPVSLPQEPPKAFSWASVTSKNLPPSGTVSSSGIPPHVKAPVSQPRVEAKPEVQSQPPRVREQRPRERPGFPPRGPRPGRGDMEQNDSDNRRIIRYPDSHQLFVGNLPHDIDENELKEFFMSFGNVVELRINTKGVGGKLPNFGFVVFDDSEPVQRILIAKPIMFRGEVRLNVEEKKTRAARERETRGGGDDRRDIRRNDRGPGGPRGIVGGGMMRDRDGRGPPPRGGMAQKLGSGRGTGQMEGRFTGQRR
binding [2]: binds | binding [1]: binds

B4: RNA-binding protein 14 (protein, UniProt Q96PK6 1-669)
chain: MKIFVGNVDGADTTPEELAALFAPYGTVMSCAVMKQFAFVHMRENAGALRAIEALHGHELRPGRALVVEMSRPRPLNTWKIFVGNVSAACTSQELRSLFERRGRVIECDVVKDYAFVHMEKEADAKAAIAQLNGKEVKGKRINVELSTKGQKKGPGLAVQSGDKTKKPGAGDTAFPGTGGFSATFDYQQAFGNSTGGFDGQARQPTPPFFGRDRSPLRRSPPRASYVAPLTAQPATYRAQPSVSLGAAYRAQPSASLGVGYRTQPMTAQAASYRAQPSVSLGAPYRGQLASPSSQSAAASSLGPYGGAQPSASALSSYGGQAAAASSLNSYGAQGSSLASYGNQPSSYGAQAASSYGVRAAASSYNTQGAASSLGSYGAQAASYGAQSAASSLAYGAQAASYNAQPSASYNAQSAPYAAQQAASYSSQPAAYVAQPATAAAYASQPAAYAAQATTPMAGSYGAQPVVQTQLNSYGAQASMGLSGSYGAQSAAAATGSYGAAAAYGAQPSATLAAPYRTQSSASLAASYAAQQHPQAAASYRGQPGNAYDGAGQPSAAYLSMSQGAVANANSTPPPYERTRLSPPRASYDDPYKKAVAMSKRYGSDRRLAELSDYRRLSESQLSFRRSPTKSSLDYRRLPDAHSDYARYSGSYNDYLRAAQMHSGYQRRM
binding [2]: binds | binding [1]: binds

B5: Nuclear fragile X mental retardation-interacting protein 2 (protein, UniProt Q7Z417 1-695)
chain: MEEKPGQPQPQHHHSHHHPHHHPQQQQQQPHHHHHYYFYNHSHNHHHHHHHQQPHQYLQHGAEGSPKAQPKPLKHEQKHTLQQHQETPKKKTGYGELNGNAGEREISLKNLSSDEATNPISRVLNGNQQVVDTSLKQTVKANTFGKAGIKTKNFIQKNSMDKKNGKSYENKSGENQSVDKSDTIPIPNGVVTNNSGYITNGYMGKGADNDGSGSESGYTTPKKRKARRNSAKGCENLNIVQDKIMQQETSVPTLKQGLETFKPDYSEQKGNRVDGSKPIWKYETGPGGTSRGKPAVGDMLRKSSDSKPGVSSKKFDDRPKGKHASAVASKEDSWTLFKPPPVFPVDNSSAKIVPKISYASKVKENLNKTIQNSSVSPTSSSSSSSSTGETQTQSSSRLSQVPMSALKSVTSANFSNGPVLAGTDGNVYPPGGQPLLTTAANTLTPISSGTDSVLQDMSLTSAAVEQIKTSLFIYPSNMQTMLLSTAQVDLPSQTDQQNLGDIFQNQWGLSFINEPSAGPETVTGKSSEHKVMEVTFQGEYPATLVSQGAEIIPSGTEHPVFPKAYELEKRTSPQVLGSILKSGTTSESGALSLEPSHIGDLQKADTSSQGALVFLSKDYEIESQNPLASPTNTLLGSAKEQRYQRGLERNDSWGSFDLRAAIVYHTKEMESIWNLQKQDPKRIITYNEAMDSPDQ
binding [2]: binds | binding [1]: binds

B6: Ataxin-2-like protein (protein, UniProt Q8WWM7 1-1075)
chain: MLKPQPLQQPSQPQQPPPTQQAVARRPPGGTSPPNGGLPGPLATSAAPPGPPAAASPCLGPVAAAGSGLRRGAEGILAPQPPPPQQHQERPGAAAIGSARGQSTGKGPPQSPVFEGVYNNSRMLHFLTAVVGSTCDVKVKNGTTYEGIFKTLSSKFELAVDAVHRKASEPAGGPRREDIVDTMVFKPSDVMLVHFRNVDFNYATKDKFTDSAIAMNSKVNGEHKEKVLQRWEGGDSNSDDYDLESDMSNGWDPNEMFKFNEENYGVKTTYDSSLSSYTVPLEKDNSEEFRQRELRAAQLAREIESSPQYRLRIAMENDDGRTEEEKHSAVQRQGSGRESPSLASREGKYIPLPQRVREGPRGGVRCSSSRGGRPGLSSLPPRGPHHLDNSSPGPGSEARGINGGPSRMSPKAQRPLRGAKTLSSPSNRPSGETSVPPPPAVGRMYPPRSPKSAAPAPISASCPEPPIGSAVPTSSASIPVTSSVSDPGVGSISPASPKISLAPTDVKELSTKEPGRTLEPQELARIAGKVPGLQNEQKRFQLEELRKFGAQFKLQPSSSPENSLDPFPPRILKEEPKGKEKEVDGLLTSEPMGSPVSSKTESVSDKEDKPPLAPSGGTEGPEQPPPPCPSQTGSPPVGLIKGEDKDEGPVAEQVKKSTLNPNAKEFNPTKPLLSVNKSTSTPTSPGPRTHSTPSIPVLTAGQSGLYSPQYISYIPQIHMGPAVQAPQMYPYPVSNSVPGQQGKYRGAKGSLPPQRSDQHQPASAPPMMQAAAAAGPPLVAATPYSSYIPYNPQQFPGQPAMMQPMAHYPSQPVFAPMLQSNPRMLTSGSHPQAIVSSSTPQYPSAEQPTPQALYATVHQSYPHHATQLHAHQPQPATTPTGSQPQSQHAAPSPVQHQAGQAPHLGSGQPQQNLYHPGALTGTPPSLPPGPSAQSPQSSFPQPAAVYAIHHQQLPHGFTNMAHVTQAHVQTGITAAPPPHPGAPHPPQVMLLHPPQSHGGPPQGAVPQSGVPALSASTPSPYPYIGHPQGEQPGQAPGFPGGADDRIREFSLAGGIWHGRAEGLQVGQDARVLGGE
binding [2]: binds | binding [1]: binds

B7: COX assembly mitochondrial protein homolog (protein, UniProt Q7Z7K0 1-106)
chain: MALDPADQHLRHVEKDVLIPKIMREKAKERCSEQVQDFTKCCKNSGVLMVVKCRKENSALKECLTAYYNDPAFYEECKMEYLKEREEFRKTGIPTKKRLQKLPTSM
binding [1]: binds

B8: C14orf166 (protein, UniProt Q9Y224 1-244)
chain: MFRRKLTALDYHNPAGFNCKDETEFRNFIVWLEDQKIRHYKIEDRGNLRNIHSSDWPKFFEKYLRDVNCPFKIQDRQEAIDWLLGLAVRLEYGDNAEKYKDLVPDNSKTADNATKNAEPLINLDVNNPDFKAGVMALANLLQIQRHDDYLVMLKAIRILVQERLTQDAVAKANQTKEGLPVALDKHILGFDTGDAVLNEAAQILRLLHIEELRELQTKINEAIVAVQAIIADPKTDHRLGKVGR
binding [2]: binds

Results are given in words; binding and its absence hold for the method and conditions named. Binding seen in cells or lysates may run through a third protein. Here binding means that the protein was enriched with, or labelled near, the bait; the list need not be complete. Where a sequence is shown, tags or fusion partners need not be part of it.
